{
  "source": "paper doi:10.1101/2025.11.18.689088",
  "biological_target": "T1, BRUTUS (BTS) (Arabidopsis thaliana) (UniProt Q8LPQ5)",
  "T1 sequence": "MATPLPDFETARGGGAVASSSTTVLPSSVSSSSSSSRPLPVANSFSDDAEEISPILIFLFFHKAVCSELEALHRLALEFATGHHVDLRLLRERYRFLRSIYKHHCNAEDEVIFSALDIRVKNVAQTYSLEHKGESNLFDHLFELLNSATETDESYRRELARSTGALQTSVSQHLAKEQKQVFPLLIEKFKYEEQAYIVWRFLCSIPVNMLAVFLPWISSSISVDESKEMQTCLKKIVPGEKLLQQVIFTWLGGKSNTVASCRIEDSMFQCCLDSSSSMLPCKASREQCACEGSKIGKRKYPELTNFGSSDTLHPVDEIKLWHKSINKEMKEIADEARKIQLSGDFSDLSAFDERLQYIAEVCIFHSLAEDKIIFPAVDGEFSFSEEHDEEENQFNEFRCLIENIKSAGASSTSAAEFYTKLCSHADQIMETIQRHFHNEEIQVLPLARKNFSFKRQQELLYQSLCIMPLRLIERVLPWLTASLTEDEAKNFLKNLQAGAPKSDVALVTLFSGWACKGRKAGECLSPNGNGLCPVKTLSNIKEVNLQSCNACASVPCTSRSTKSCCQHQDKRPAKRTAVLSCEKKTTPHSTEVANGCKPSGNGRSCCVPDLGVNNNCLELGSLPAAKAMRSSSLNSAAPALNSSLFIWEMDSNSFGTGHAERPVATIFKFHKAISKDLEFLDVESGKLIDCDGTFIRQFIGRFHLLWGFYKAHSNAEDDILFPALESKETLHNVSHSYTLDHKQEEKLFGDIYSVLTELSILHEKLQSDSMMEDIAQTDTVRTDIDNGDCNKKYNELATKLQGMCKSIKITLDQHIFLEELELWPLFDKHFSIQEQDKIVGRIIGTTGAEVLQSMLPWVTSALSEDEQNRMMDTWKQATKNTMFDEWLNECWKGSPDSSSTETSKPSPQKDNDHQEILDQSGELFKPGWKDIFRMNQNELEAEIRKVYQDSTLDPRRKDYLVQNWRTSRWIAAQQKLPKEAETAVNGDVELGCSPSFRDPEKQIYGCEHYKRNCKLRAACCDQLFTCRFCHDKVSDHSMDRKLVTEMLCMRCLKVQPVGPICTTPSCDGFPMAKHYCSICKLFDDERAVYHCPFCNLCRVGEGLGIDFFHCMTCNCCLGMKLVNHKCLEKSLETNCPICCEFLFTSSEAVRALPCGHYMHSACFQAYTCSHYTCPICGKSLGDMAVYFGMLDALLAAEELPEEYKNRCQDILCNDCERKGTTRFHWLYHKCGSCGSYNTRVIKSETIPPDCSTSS",
  "assay": "two-hybrid",
  "note": "No constants are given. Whether binding was seen depends on the method and setting. Binding calls can cover weak binding; strength is not graded here.",
  "data": [
    {"substance": "C-terminal part of bHLH104 (bHLH104-C) (Arabidopsis thaliana) (domain or fragment)", "values": [
      {"measurement": "binding", "result": "binds"}
    ]}
  ]
}
